Source: PubChem BioAssay AID493246 (Drosophila RNAi Screening Center, 2011)
The screen tested about 21,000 reagents; shown is an unselected part of those that have a named target and a result. Of all reagents, 429 (2%) were called active. 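Values are raw and not normalised between plates; calls rest on per-plate z-scores that were not deposited.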 Unmarked entries are inactive. The numbers tell different reagents against one gene apart. A plus sign joins genes that one reagent is predicted to hit. Reagent sequences are not shown. Not given: the amount of reagent, the time to read-out.

Screen: 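Genes fly cells need to grow and stay alive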 (primary screen)
Cell system: Drosophila Kc and S2R+ cells
Reagent: long dsRNA against Drosophila genes
Detection: 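Raw, unnormalised count of remaining cells in each well; per-plate z-scores of cell number underlie the calls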
Direction: Kc cell number and S2R+ cell number: higher = more cells remaining
Rule for the call: 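Counted as a hit if cell number falls by a z-score of at least 3 within its plate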

| Gene | reagent | Kc cell number, rep 1 | Kc cell number, rep 2 | S2R+ cell number, rep 1 | S2R+ cell number, rep 2 |
| --- | --- | --- | --- | --- | --- |
| Ccp84Ab | 1 | 1.39e6 | 1.49e6 | 1.17e6 | 1.25e6 |
| sna | 1 | 1.46e6 | 1.57e6 | 1.22e6 | 1.31e6 |
| CG13676 | 1 | 1.74e6 | 1.66e6 | 9.69e5 | 1.10e6 |
| eIF3c | 1 | 1.26e6 | 1.38e6 | 8.00e5 | 1.01e6 |
| Trx2 | 1 | 1.53e6 | 1.58e6 | 1.21e6 | 1.38e6 |
| CG8665 | 1 | 1.70e6 | 1.85e6 | 1.56e6 | 5.22e5 |
| dgt2 | 1 | 1.66e6 | 1.72e6 | 1.24e6 | 1.42e6 |
| lectin-21Cb | 1 | 1.54e6 | 1.58e6 | 1.06e6 | 1.15e6 |
| Sec61beta | 1 | 1.60e6 | 1.78e6 | 1.03e6 | 1.18e6 |
| lbm | 1 | 1.42e6 | 1.48e6 | 1.23e6 | 1.39e6 |
| CG11570 | 1 | 1.32e6 | 1.24e6 | 1.20e6 | 1.33e6 |
| ninaA | 1 | 1.33e6 | 1.35e6 | 9.33e5 | 1.07e6 |
| CG43339 + CG43338 | 1 | 1.32e6 | 1.38e6 | 1.22e6 | 1.22e6 |
| CG3916 | 1 | 1.54e6 | 1.50e6 | 1.18e6 | 1.28e6 |
| mab-21 | 1 | 1.87e6 | 1.79e6 | 1.16e6 | 1.29e6 |
| Dok | 1 | 1.68e6 | 1.62e6 | 1.00e6 | 1.10e6 |
| CG14759 | 1 | 1.59e6 | 1.59e6 | 1.39e6 | 1.49e6 |
| CG33233 | 1 | 1.23e6 | 1.29e6 | 1.07e6 | 1.25e6 |
| Synd | 1 | 1.38e6 | 1.55e6 | 9.10e5 | 9.68e5 |
| Mco4 | 1 | 1.47e6 | 1.47e6 | 1.04e6 | 1.11e6 |
| CG34268 | 1 | 1.44e6 | 1.40e6 | 1.00e6 | 1.14e6 |
| His2B:CG33870 + His2B:CG33868 + His2B:CG33882 + 21 more | 1 | 6.33e5 (active) | 7.48e5 | 4.68e5 | 2.56e5 |
| Sec10 | 1 | 1.43e6 | 1.52e6 | 1.03e6 | 1.07e6 |
| lncRNA:CR32661 | 1 | 1.56e6 | 1.54e6 | 1.10e6 | 1.20e6 |
| CG14244 | 1 | 1.51e6 | 1.46e6 | 9.94e5 | 1.11e6 |
| Gmd | 1 | 1.30e6 | 1.35e6 | 6.49e5 | 6.97e5 |
| E(spl)mbeta-HLH | 1 | 5.84e5 | – | 7.72e5 | – |
| Cyp313a3 | 1 | 1.56e6 | 1.56e6 | 1.26e6 | 1.33e6 |
| Not11 | 1 | 1.51e6 | 1.53e6 | 1.24e6 | 1.40e6 |
| Hsf | 1 | 1.26e6 | 1.32e6 | 1.08e6 | 1.14e6 |
| CG8916 | 1 | 1.39e6 | 1.40e6 | 1.13e6 | 1.16e6 |
| bowl | 1 | 1.42e6 | 1.39e6 | 1.22e6 | 1.22e6 |
| Ak3 | 1 | 1.60e6 | 1.71e6 | 1.30e6 | 1.36e6 |
| CG11155 | 1 | 1.06e6 | 1.39e6 | 1.07e6 | 1.04e6 |
| CG11155 | 2 | 4.77e5 | – | 8.76e5 | – |
| CG12729 | 1 | 1.47e6 | 1.49e6 | 1.00e6 | 1.11e6 |
| Trm7-34 | 1 | 1.29e6 | 1.38e6 | 1.09e6 | 1.18e6 |
| CG34330 | 1 | 1.57e6 | 1.58e6 | 1.13e6 | 1.23e6 |
| PolD3 | 1 | 1.29e6 | 1.32e6 | 1.28e6 | 1.26e6 |
| CG42710 | 1 | 1.43e6 | 1.41e6 | 9.84e5 | 1.09e6 |
| l(1)G0004 | 1 | 1.44e6 | 1.52e6 | 1.01e6 | 1.14e6 |
| CG33490 | 1 | 1.36e6 | 1.39e6 | 1.24e6 | 1.15e6 |
| Alr | 1 | 1.61e6 | 1.77e6 | 1.10e6 | 1.29e6 |
| Cep89 | 1 | 1.65e6 | 1.78e6 | 1.44e6 | 1.57e6 |
| CG40045 | 1 | 1.35e6 | 1.33e6 | 1.06e6 | 1.18e6 |
| Rab18 | 1 | 5.64e5 | – | 4.12e5 | – |
| CG7044 | 1 | 1.33e6 | 1.35e6 | 1.15e6 | 1.24e6 |
| fit | 1 | 1.44e6 | 1.44e6 | 1.23e6 | 1.39e6 |
| Jon65Aii | 1 | 1.48e6 | 1.45e6 | 1.12e6 | 1.26e6 |
| CG4546 | 1 | 1.39e6 | 1.50e6 | 1.08e6 | 1.23e6 |
| CG14615 | 1 | 1.45e6 | 1.55e6 | 9.63e5 | 1.03e6 |
| Glut3 | 1 | 1.48e6 | 1.59e6 | 1.20e6 | 1.25e6 |
| by | 1 | 1.48e6 | 1.55e6 | 1.30e6 | 1.39e6 |
| CG16970 (retired record) | 1 | 1.45e6 | 1.48e6 | 1.01e6 | 1.09e6 |
| CG16970 (retired record) | 2 | 1.56e6 | 1.58e6 | 1.30e6 | 1.46e6 |
| vex | 1 | 1.62e6 | 1.60e6 | 1.07e6 | 1.20e6 |
| vex | 2 | 1.61e6 | 1.59e6 | 1.02e6 | 1.21e6 |
| Spn53F | 1 | 1.49e6 | 1.59e6 | 1.13e6 | 1.18e6 |
| Antdh | 1 | 1.61e6 | 1.54e6 | 1.13e6 | 1.30e6 |
| CG15254 | 1 | 1.31e6 | 1.33e6 | 1.02e6 | 1.16e6 |
| alpha-Spec | 1 | 1.30e6 | 1.35e6 | 1.17e6 | 1.20e6 |
| Xe7 | 1 | 1.66e6 | 1.97e6 | 1.26e6 | 1.36e6 |
| ACXD | 1 | 1.49e6 | 1.32e6 | 9.06e5 | 1.11e6 |
| CCDC53 | 1 | 1.57e6 | 1.63e6 | 1.14e6 | 1.30e6 |
| ais | 1 | 1.46e6 | 1.52e6 | 1.20e6 | 1.28e6 |
| CG43894 | 1 | 1.49e6 | 1.50e6 | 1.08e6 | 1.22e6 |
| CG13743 | 1 | 1.27e6 | 1.46e6 | 1.12e6 | 1.19e6 |
| CG13743 | 2 | 1.48e6 | 1.59e6 | 1.01e6 | 1.08e6 |
| Cyp1 | 1 | 6.39e5 | – | 9.33e5 | – |
| CG4313 | 1 | 5.25e5 | – | 8.19e5 | – |
| Myo95E | 1 | 1.52e6 | 1.61e6 | 1.20e6 | 1.24e6 |
| CG9030 | 1 | 1.52e6 | 1.52e6 | 1.16e6 | 1.24e6 |
| Idgf1 | 1 | 1.29e6 | 1.40e6 | 1.37e6 | 1.39e6 |
| CG7011 | 1 | 1.46e6 | 1.56e6 | 1.15e6 | 1.36e6 |
| Syb | 1 | 1.57e6 | 1.58e6 | 9.33e5 | 9.97e5 |

A run of entries from the list above, for reference:
| Gene | reagent | Kc cell number, rep 1 | Kc cell number, rep 2 | S2R+ cell number, rep 1 | S2R+ cell number, rep 2 |
| --- | --- | --- | --- | --- | --- |
| Antdh | 1 | 1.61e6 | 1.54e6 | 1.13e6 | 1.30e6 |
| CG15254 | 1 | 1.31e6 | 1.33e6 | 1.02e6 | 1.16e6 |
| alpha-Spec | 1 | 1.30e6 | 1.35e6 | 1.17e6 | 1.20e6 |
| Xe7 | 1 | 1.66e6 | 1.97e6 | 1.26e6 | 1.36e6 |
| ACXD | 1 | 1.49e6 | 1.32e6 | 9.06e5 | 1.11e6 |
| CCDC53 | 1 | 1.57e6 | 1.63e6 | 1.14e6 | 1.30e6 |
| ais | 1 | 1.46e6 | 1.52e6 | 1.20e6 | 1.28e6 |
| CG43894 | 1 | 1.49e6 | 1.50e6 | 1.08e6 | 1.22e6 |
| CG13743 | 1 | 1.27e6 | 1.46e6 | 1.12e6 | 1.19e6 |
